In paper PMC10303434:
These are yes or no findings as the source states them, for the method shown. In cells and extracts the contact can be indirect. Some binding calls cover weakened binding; strength is not graded here.

Sequences of proteins named here, by UniProt entry; tags and fusion partners are left off.
UniProt Q8NFJ5: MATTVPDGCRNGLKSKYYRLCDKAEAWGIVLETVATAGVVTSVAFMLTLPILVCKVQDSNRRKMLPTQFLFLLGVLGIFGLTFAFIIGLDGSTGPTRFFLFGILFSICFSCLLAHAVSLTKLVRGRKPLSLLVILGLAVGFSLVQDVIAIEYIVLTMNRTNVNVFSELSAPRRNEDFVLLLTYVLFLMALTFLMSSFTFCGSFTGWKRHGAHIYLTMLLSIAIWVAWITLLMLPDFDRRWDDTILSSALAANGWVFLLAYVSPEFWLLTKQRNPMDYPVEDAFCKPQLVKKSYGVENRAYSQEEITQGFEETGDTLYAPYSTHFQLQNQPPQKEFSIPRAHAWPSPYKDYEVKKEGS

Biological target: GPRC5A-GFP (human (cDNA from TREX-BCBL-1 cells)) (UniProt Q8NFJ5)
Assay: co-IP

- binding: binds
B1: FLOT1 (protein, UniProt O75955 1-427)
chain: MFFTCGPNEAMVVSGFCRSPPVMVAGGRVFVLPCIQQIQRISLNTLTLNVKSEKVYTRHGVPISVTGIAQVKIQGQNKEMLAAACQMFLGKTEAEIAHIALETLEGHQRAIMAHMTVEEIYKDRQKFSEQVFKVASSDLVNMGISVVSYTLKDIHDDQDYLHSLGKARTAQVQKDARIGEAEAKRDAGIREAKAKQEKVSAQYLSEIEMAKAQRDYELKKAAYDIEVNTRRAQADLAYQLQVAKTKQQIEEQRVQVQVVERAQQVAVQEQEIARREKELEARVRKPAEAERYKLERLAEAEKSQLIMQAEAEAASVRMRGEAEAFAIGARARAEAEQMAKKAEAFQLYQEAAQLDMLLEKLPQVAEEISGPLTSANKITLVSSGSGTMGAAKVTGEVLDILTRLPESVERLTGVSISQVNHKPLRTA
